Taken from: PubChem BioAssay AID1259282 (Sanger Institute, 2017)
The whole screen tested 794 reagents; this is a random part of them. Over the whole deposit, 11 (1.4%) got an active call. 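Calls flag knock-downs that lower viability without drug; drug synergy appears only in the synergy scores; exposure time not stated.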 No viability above 1 is reported: the scale is capped. Not all columns of the deposit are shown. Not stated in the record: the amount of reagent, the time to read-out.

Assay: 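siRNA screen across the kinome seeking drug combinations lethal to colorectal cancer cells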 (primary screen)
Cell system: DIFI human colorectal cancer cell line
Reagents: siRNA pool against human genes
Treatment: anchor drug at a mild dose (BYL719 1 µM, cetuximab 5 µg/ml, trametinib 10 nM) or DMSO vehicle; exposure time not given
Measurement: 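Robust z-score and replicate-mean viability versus non-targeting pool without drug, plus a synergy score for each low-dose anchor drug (BYL719, cetuximab, trametinib)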
Reading the numbers: robust z-score, knock-down alone: higher = more viable cells than typical knock-down; viability, knock-down alone: higher = more viable cells; synergy score with trametinib and synergy score with cetuximab: higher = stronger combined killing with drug
Call rule: 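a knock-down is called essential if its DMSO robust z-score is under -3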
Calls: active = essential (knock-down alone, z below -3); inactive = not essential

Gene | robust z-score, knock-down alone | viability, knock-down alone (fraction of control) | synergy score with trametinib | synergy score with cetuximab | activity call
NEK9 (GeneID 91754) | 0.0493 | 0.903 | 0.13 | 0.00416 | inactive
PDK1 (GeneID 5163) | 0.55 | 0.976 | 0.0731 | -0.0556 | inactive
PRKAR1A (GeneID 5573) | 0.682 | 0.995 | -0.0179 | 0.00497 | inactive
CALM1 (GeneID 801) | 0.292 | 0.939 | 0.252 | 0.0927 | inactive
CDKL3 (GeneID 51265) | 0.715 | 1 | -0.0541 | -0.0514 | inactive
LATS1 (GeneID 9113) | -0.498 | 0.824 | 0.0193 | -0.0128 | inactive
ACSL6 (GeneID 23305) | 0.715 | 1 | -0.101 | -0.138 | inactive
BTK (GeneID 695) | -0.508 | 0.822 | -0.0411 | 0.0355 | inactive
GSK3B (GeneID 2932) | 0.715 | 1 | -0.0122 | -0.00808 | inactive
MVK (GeneID 4598) | 0.213 | 0.927 | 0.143 | 0.106 | inactive
PFKFB4 (GeneID 5210) | 0.715 | 1 | 0.0969 | 0.0332 | inactive
CDKL2 (GeneID 8999) | -0.622 | 0.806 | 0.00674 | -0.0548 | inactive
TCF7L2 (GeneID 6934) | 0.715 | 1 | -0.0792 | -0.104 | inactive
NEK5 (GeneID 341676) | 0.715 | 1 | 0.0658 | 0.0147 | inactive
RIPK2 (GeneID 8767) | 0.715 | 1 | 0.185 | 0.151 | inactive
ETNK1 (GeneID 55500) | 0.715 | 1 | -0.00562 | -0.00354 | inactive
ADCK2 (GeneID 90956) | 0.715 | 1 | 0.0537 | -0.0112 | inactive
DMPK (GeneID 1760) | 0.0776 | 0.907 | -0.0765 | -0.00984 | inactive
OXSR1 (GeneID 9943) | 0.715 | 1 | -0.0617 | -0.0659 | inactive
PGK1 (GeneID 5230) | 0.176 | 0.922 | 0.104 | 0.0515 | inactive
ZAP70 (GeneID 7535) | -0.543 | 0.817 | 0.0662 | 0.0791 | inactive
BRSK1 (GeneID 84446) | 0.715 | 1 | 0.0131 | 0.0635 | inactive
ITPKA (GeneID 3706) | -1.19 | 0.723 | -0.00606 | 0.0484 | inactive
PHKA1 (GeneID 5255) | 0.715 | 1 | -0.149 | 0.0122 | inactive
AK3 (GeneID 50808) | 0.393 | 0.953 | -0.114 | -0.0124 | inactive
GCK (GeneID 2645) | -1.83 | 0.631 | 0.0298 | 0.0475 | inactive
INSR (GeneID 3643) | 0.279 | 0.937 | 0.0948 | -0.0458 | inactive
RIPK3 (GeneID 11035) | 0.715 | 1 | 0.00503 | 0.027 | inactive
PIP5K1B (GeneID 8395) | 0.715 | 1 | 0.226 | 0.128 | inactive
PTK2B (GeneID 2185) | -0.459 | 0.83 | 0.0324 | 0.0176 | inactive
CASP8 (GeneID 841) | 0.715 | 1 | -0.0876 | 0.0231 | inactive
ACVR2A (GeneID 92) | 0.715 | 1 | -0.0551 | -0.0381 | inactive
LRRK2 (GeneID 120892) | -0.671 | 0.799 | 0.0619 | -0.0107 | inactive
EPHB6 (GeneID 2051) | -0.0425 | 0.89 | 0.00796 | -0.129 | inactive
MAP2K1 (GeneID 5604) | 0.444 | 0.961 | 0.23 | 0.148 | inactive
AURKA (GeneID 6790) | -1.87 | 0.625 | -0.0579 | -0.0653 | inactive

The list goes on, starting with the last 4 of the part before.
Gene | robust z-score, knock-down alone | viability, knock-down alone (fraction of control) | synergy score with trametinib | synergy score with cetuximab | activity call
LRRK2 (GeneID 120892) | -0.671 | 0.799 | 0.0619 | -0.0107 | inactive
EPHB6 (GeneID 2051) | -0.0425 | 0.89 | 0.00796 | -0.129 | inactive
MAP2K1 (GeneID 5604) | 0.444 | 0.961 | 0.23 | 0.148 | inactive
AURKA (GeneID 6790) | -1.87 | 0.625 | -0.0579 | -0.0653 | inactive
DYRK1B (GeneID 9149) | 0.196 | 0.925 | -0.0276 | -0.0641 | inactive
CDKL1 (GeneID 8814) | 0.642 | 0.989 | 0.0207 | -0.0853 | inactive
PIK3CG (GeneID 5294) | 0.675 | 0.994 | 0.0576 | 0.061 | inactive
DAPK2 (GeneID 23604) | 0.715 | 1 | -0.104 | -0.0355 | inactive
PDGFRB (GeneID 5159) | -2.17 | 0.581 | -0.0632 | -0.0457 | inactive
CDK13 (GeneID 8621) | 0.623 | 0.987 | -0.153 | -0.0972 | inactive
AMHR2 (GeneID 269) | -0.632 | 0.804 | 0.0754 | 0.0843 | inactive
NME3 (GeneID 4832) | 0.715 | 1 | 0.118 | 0.109 | inactive
DUSP21 (GeneID 63904) | 0.715 | 1 | 0.0142 | -0.024 | inactive
PINK1 (GeneID 65018) | -0.822 | 0.777 | 0.219 | 0.182 | inactive
MAP3K13 (GeneID 9175) | 0.715 | 1 | -0.118 | -0.0949 | inactive
CDK20 (GeneID 23552) | -0.761 | 0.786 | 0.0635 | 0.0595 | inactive
MAP3K12 (GeneID 7786) | 0.715 | 1 | 0.0516 | 0.134 | inactive
CDK18 (GeneID 5129) | -1.92 | 0.618 | 0.0264 | -0.0895 | inactive
HCK (GeneID 3055) | 0.715 | 1 | 0.0968 | 0.113 | inactive
STAG2 (GeneID 10735) | 0.715 | 1 | -0.032 | -0.0518 | inactive
PAK2 (GeneID 5062) | -0.793 | 0.781 | 0.0498 | -0.0302 | inactive
NLK (GeneID 51701) | 0.473 | 0.965 | 0.292 | 0.157 | inactive
GOLGA5 (GeneID 9950) | 0.715 | 1 | -0.137 | -0.000763 | inactive
RIPK4 (GeneID 54101) | 0.715 | 1 | 0.00949 | 0.135 | inactive
AAK1 (GeneID 22848) | 0.602 | 0.984 | 0.163 | 0.0119 | inactive
MAP4K2 (GeneID 5871) | 0.233 | 0.93 | -0.00224 | 0.0254 | inactive
MAPK13 (GeneID 5603) | 0.715 | 1 | 0.0148 | 0.0918 | inactive
TRIM27 (GeneID 5987) | -0.057 | 0.888 | 0.147 | 0.0565 | inactive
CLK1 (GeneID 1195) | 0.715 | 1 | 0.00804 | -0.121 | inactive
TRIO (GeneID 7204) | 0.715 | 1 | -0.209 | -0.0747 | inactive
SBK1 (GeneID 388228) | 0.715 | 1 | -0.189 | -0.219 | inactive
